In PMC10163288:
This is one part of the list.

B1: il2ra_site1_3nfp_sap_13_mot_HHH_b1_03716_af2_000000235_0001_20_37_H_._HHH_b2_05993_0001_0000100005_0000001_0_0001_af2pred_0001_af2pred (protein)
chain: SSSSDEEQEEVEELLERAEKAAEEGDLEKARELFRRALKVALEINDPEAERLVHEAMRRASSSSS
B2: il2ra_site2_3nfp_normal_mot_HHH_b2_08245_000000023_0001_41_55_H_._ems_3hC_866_af2_0001_0000100004_0000001_0 (protein)
chain: SEEQEEQIERLEEELREAVERNDKEKIKEIIRLISHFVAENRDNPEARRLFFLAAEALFLVVQSS
B3: il2ra_site1_1z92_sap_17_mot_HHH_b1_06709_000000271_0001_41_56_H_._HHH_b1_04981_af2_0001_0000600008_0000001_0_0001_af2pred_0001_af2pred (protein)
chain: SLEEEVEELAKLIPDPRLRELVQALLEELELGNPAAKAFLEVLVKKLRRDPEAAKRLLEKALKAE
B4: il2ra_site1_2b5i_sap_23_mot_HHH_b2_04131_000000150_0001_1_16_H_._HHH_b1_04838_0001_0000300009_0000001_0_0001_af2pred_dldesign_0_af2pred (protein)
chain: SSAEDERLEREIEELEELKKKLTNPEAKKLLTLAIRALRKAIRHRDPGAAELARELREKALSLKS
B5: il2ra_site1_2b5i_normal_mot_HHH_b1_06515_af2_000000249_0001_1_17_H_._HHH_b1_06937_af2_0001_0000200012_0000001_0_af2pred_0001_af2pred (protein)
chain: SSSSDEELHRVDELYRRASELFRRGNKEEARQLLEEAIEIAEEAGDERTVKDLRRFLERISSSSS
B6: il2ra_site1_1z92_normal_mot_HHH_b2_05238_af2_000000252_0001_38_55_H_._HHH_b1_01495_af2_0002_0000300012_0000001_0_af2pred_0001_af2pred_1 (protein)
chain: SSSSSKEESLELAERAARRAIEAGNERSARRLLKFVIEAAEELGNEELLEELEELLERLESSSSS
B7: il2ra_site2_3nfp_sap_21_mot_HHH_b1_02173_000000190_0001_1_18_H_._HHH_b2_05995_0001_0000200011_0000001_0_0001 (protein)
chain: SEEELRELVRELLNVPPKSAEYIVAVALILAGGDPELAEELLREVIEEAGGDPNKVIQILYKRAR
B8: il2ra_site1_2b5i_sap_14_mot_1dae16775e8f4074d71d019417416b97_0001_af2_000000275_0001_1_12_H_._HHH_b2_06340_0001_0000200004_0000001_0_0001_af2pred_dldesign_0_af2 … (protein)
chain: SSSSMSLRDLTLAYLKKAEELLAAGKPEEAYKLLVMARRTAKKGGDEELVAEVEARLARLSSSSS
B9: il2ra_site1_2b5i_normal_mot_HHH_b1_01495_af2_000000272_0001_42_56_H_._HHH_b1_00083_0001_0000300014_0000001_0_af2pred_dldesign_0_af2pred (protein)
chain: SSSSDEEYARVDDLFHEALKLKKEGKLEEAQELLDEALELAKKVNDPKIIAELEYLKEKLSSSSS
B10: il2ra_site2_2erj_sap_14_mot_HHH_b1_03833_000000078_0001_1_20_H_._HHH_b1_07248_0001_0001200026_0000001_0_0001_af2pred_0001_1_af2pred_swapped (protein)
chain: SSSSSSEERRAAEANARLARLLFEGDEEEAEKVAEELEELAERVNDEDLLASAEFVLELLSSSSS
B11: il2ra_site2_2erj_sap_18_mot_HHH_b1_00449_000000059_0001_39_52_H_._HHH_b1_08757_af2_0001_0001000014_0000001_0_0001_af2pred_0001_af2pred (protein)
chain: SSSSSDEEEQREVEELLERARHIPDIEEALKLLQRAAQLAQELNDPELIELVEELLRELSSSSSS
B12: il2ra_site1_1z92_normal_mot_HHH_b1_05118_af2_000000199_0001_39_52_H_._HEEHE_3047_af2_0001_0000100001_0000001_0_af2pred_0001_af2pred_1 (protein)
chain: SEEEDIEKFVELASKSAGVPSVEWSIHNGELHVTINGDDEAARRLRKLLEKFAKAAGFKVSVEIR
B13: il2ra_site1_1z92_sap_19_mot_HHH_b1_05118_af2_000000199_0001_39_52_H_._HHH_b1_05328_af2_0001_0000400021_0000001_0_0001 (protein)
chain: DEIEELIEQLLRRAGVPPKDVEYVAEQAKRALERGNPRAATRLVKDMLRLAGNPELAEELEERLP
B14: il2ra_site1_3nfp_sap_12_mot_HHH_b1_04676_af2_000000031_0001_1_20_H_._HHH_b1_02329_0001_0000100005_0000001_0_0001 (protein)
chain: SLEEELKRLVEEGDPEELKRILEELIREALEKHDPRLAHEVLRLIAKLDLHGDPAARLAYEIIAK
B15: il2ra_site1_2b5i_normal_mot_2548690152cc24afdf538b66510d0e06_0001_af2_000000000_0001_37_51_H_._HHH_b2_05999_0001_0000400038_0000001_0_af2pred_dldesign_0_af2pred (protein)
chain: SSSSSPQERAFLRKYLEYAIKRIPDPAVQARLQAALARLEAEGDTETARAAAEEADEHLLSSSSS
B16: il2ra_site1_3nfp_sap_17_mot_HHH_b2_00809_af2_000000121_0001_23_40_H_._HHH_b1_05348_0001_0000800011_0000001_0_0001_af2pred_0001_af2pred (protein)
chain: SSSDIKREADRLLKELKELLANDDPEKFEEVFKRAEEVIEEANDPLAEEMLEFLEEKAKELSSSS
B17: il2ra_site2_3nfp_normal_mot_HHH_b2_04451_000000238_0001_21_37_H_._HHH_b1_07886_af2_0001_0000700027_0000001_0 (protein)
chain: SSSSSSEEVEELLQEARELLEEGDPAEALEVLQKASEIAARLGDEELARKVLELFELIQRSSSSS
B18: il2ra_site2_3nfp_sap_17_mot_HHH_b1_00660_af2_000000199_0001_40_57_H_._HHH_b1_02808_af2_0001_0001200012_0000001_0_0001 (protein)
chain: SSDPERLKILAEMIRALLKIVEDPEAQELVEEALELAEEALEKQDRELAAEASHLAAEAMEIRSS
B19: il2ra_site2_3nfp_sap_19_mot_HHH_b2_06797_000000207_0001_22_38_H_._038fe1aee5932669f1ddd6e60ea7a8eb_0001_0001_0000800055_0000001_0_0001 (protein)
chain: SEEEQRRLAQEIFELGDEDAFAALADIMFAKIKGDPEAEESAEKAIEEIKKKDPELARLLEEALK
B20: il2ra_site1_2b5i_sap_14_mot_HHH_b2_06557_000000121_0001_42_56_H_._HHH_b1_08067_0001_0000400026_0000001_0_0001_af2pred_dldesign_0_af2pred (protein)
chain: SSSSSAVGREIRRLMLEADALFKAGKEEEAKELLEKALALAKANKRAGFARLLEAMLEQLESSSS
B21: il2ra_site2_3nfp_sap_23_mot_HHH_b1_05208_af2_000000289_0001_23_38_H_._70ff24e2f3a5c12334ced80a47d8c0ca_0001_0001_0000200031_0000001_0_0001 (protein)
chain: SSSSSEDEERVEELLEEAKQIEDEEEARRILAEAAHIAWEANNSELFFEIAEVLYELIKRSSSSS
B22: il2ra_site2_2erj_normal_mot_HHH_b1_02757_000000121_0001_41_57_H_._HHH_b2_03975_0001_0000300020_0000001_0_af2pred_0001_af2pred (protein)
chain: SSSSSDEEEIEERVRELLERAKQIPDPEEALKHLQEASQLAVEGEDDELLELILEVARKSSSSSS
B23: il2ra_site1_3nfp_sap_24_mot_bca1cc675e315f79de6ed5a5a20872d8_0001_000000179_0001_36_50_H_._beb1d263b9c7401a962785d3a1373af0_0001_af2_0001_0000600024_0000001_0_0 … (protein)
chain: SSSSDEVIKRVQELLKRIKELLKEGDEEEARKLIEEVEELAEEENDPVLRLAAERFEEQVDSSSS
B24: il2ra_site2_2erj_sap_19_mot_HHH_b2_00789_000000198_0001_40_54_H_._HHH_b2_04610_0001_0000200004_0000001_0_0001 (protein)
chain: SSSSSWLHRLYELALEITRALSEGDEERVEELLEELRELAEEADSETAKKIVETLHRHLDSSSSS
B25: il2ra_site1_1z92_normal_mot_HHH_b2_01902_af2_000000252_0001_25_40_H_._HHH_b2_06820_0001_0000200028_0000001_0 (protein)
chain: SSSSDERLELDARAIVRVAVEAAGLSEEDREELEEIAQRLLEEGVDHLEVIQIIDKLALELSSSS
B26: il2ra_site2_3nfp_normal_mot_HHH_b2_02212_af2_000000162_0001_42_56_H_._cb30422a6ab91adc1f3d04a5d8d2ea43_0001_0001_0000200018_0000001_0 (protein)
chain: SKREQIELLQEIWEKGDSDAFFALAEIWWALETGDPEAEEEAERAIEEIKKKDPELARLLEEALK
B27: il2ra_site1_3nfp_sap_14_mot_HHH_b2_00162_af2_000000036_0001_22_38_H_._HHH_b1_02469_0001_0000400012_0000001_0_0001 (protein)
chain: SSSSDTAKRVSELLREAAERAREGDEERVKELLKEAKEIAEEFGDPIVERLIKQYEENLRRSSSS
B28: il2ra_site2_2erj_normal_mot_HHH_b2_01353_af2_000000049_0001_23_39_H_._HHH_b1_01973_af2_0001_0000800016_0000001_0 (protein)
chain: SSSSDEEVKELLEKAEELLEEGNPEEALRVVRRASELAFRLGNFELFAEVAELAREIAERGSSSS
B29: il2ra_site2_3nfp_normal_mot_HHH_b1_06589_000000230_0001_37_50_H_._HHH_b2_05061_0001_0000200006_0000001_0 (protein)
chain: SSSSSSDLEEEVQELLERLKKVSEEEREKLLAKATRLVFENNNPELYMLIAEALFELASSSSSSS
B30: il2ra_site1_1z92_sap_17_mot_HHH_b2_07916_000000165_0001_23_39_H_._HHH_b1_05042_0001_0000100008_0000001_0_0001 (protein)
chain: SSSSSSKKTVEWALELAELAIKTGSPERARFALRNARMIAERLNDEELLEEVEELLEEVNSSSSS
B31: il2ra_site2_3nfp_normal_mot_HHH_b1_05628_af2_000000064_0001_19_35_H_._HHH_b1_04724_af2_0001_0000300023_0000001_0_af2pred_0001_af2pred (protein)
chain: SSSSDLEERVRELLEEAQELLERGNPEEAEKVVLRAASLASEAGDFELFAAANRLAEKIHKSSSS
B32: il2ra_site1_3nfp_normal_mot_0831bd5750e541fe76d95d22628dacf8_0001_000000198_0001_16_33_H_._HHH_b2_03065_af2_0001_0000200009_0000001_0 (protein)
chain: SSSSDVEEEVRKILEEAEELLRKGDFKRALELIHEAQELAEENNDDEARELLKQFARKFAGSSSS
B33: il2ra_site2_2erj_normal_mot_HHH_b2_00789_000000198_0001_40_54_H_._HHH_b1_07623_af2_0001_0000500027_0000001_0 (protein)
chain: SSSSSDTLEVLEELAEELFEEGDRSALELILRYLELSLKQTGDPEIEKAYEKVRELLERLSSSSS
B34: il2ra_site2_3nfp_sap_14_mot_HHH_b1_05122_af2_000000298_0001_39_52_H_._HHH_b2_02238_af2_0001_0000800042_0000001_0_0001 (protein)
chain: SSSSDAEEYIKAALALAERAARRNDPAAERHLKLIRLAIESNGDEEAEELLEEIERLLRELSSSS
B35: il2ra_site1_1z92_normal_mot_HHH_b1_04602_000000153_0001_1_19_H_._HHH_b1_00326_0001_0000100014_0000001_0_af2pred_0001_af2pred_1_swapped (protein)
chain: SSSSDKRFALEVVAKLAARLHLSLEQLKELHELALELLERGLSEEEIEEELEKLAEELKKSSSSS
B36: il2ra_site1_3nfp_normal_mot_HHH_b1_05162_af2_000000139_0001_1_18_H_._HHH_b1_04304_0001_0000400051_0000001_0_af2pred_0001_af2pred (protein)
chain: SSSSSEEQKEFQEIAREVLKLIQEGDHEEAERLIERLEELARKANSPAAKLLVERLKKRVSSSSS
B37: il2ra_site1_1z92_sap_22_mot_HHH_b1_08214_000000261_0001_20_36_H_._HHH_b1_07477_0001_0000800073_0000001_0_0001_af2pred_0001_1_af2pred_swapped (protein)
chain: KITIEIENASPLVEKLIRLAKNAPDVEVRTENYNTYTVEVRNERIAEILERYARMAGVKVEVEMS

target: il2ra, P01589; test: yeast display titration

Apparent Kd, inactive:
B1 no binding seen
B2 no binding seen
B3 no binding seen
B4 no binding seen
B5 no binding seen
B6 no binding seen
B7 no binding seen
B8 no binding seen
B9 no binding seen
B10 no binding seen
B11 no binding seen
B12 no binding seen
B13 > 4.72 nM
B14 no binding seen
B15 no binding seen
B16 no binding seen
B17 no binding seen
B18 no binding seen
B19 no binding seen
B20 no binding seen
B21 > 151 nM
B22 no binding seen
B23 no binding seen
B24 no binding seen
B25 no binding seen
B26 no binding seen
B27 no binding seen
B28 no binding seen
B29 no binding seen
B30 > 1150 nM
B31 no binding seen
B32 no binding seen
B33 no binding seen
B34 no binding seen
B35 no binding seen
B36 no binding seen
B37 no binding seen

Three entries drawn at random from those above, as already listed:
Apparent Kd, inactive:
B15 no binding seen
B24 no binding seen
B13 > 4.72 nM
